PubChem BioAssay AID1259306, Sanger Institute – 2017

Assay: 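Find kinases whose loss reduces colorectal cancer cell viability or aids targeted drugs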 (primary screen)
System: human SNU-C5 colorectal cancer cells
Knock-down reagent: siRNA pool against human genes
Conditions: DMSO vehicle alone, or one anchor drug: BYL719 at 1 µM, cetuximab at 5 µg/ml or trametinib at 10 nM, given 24 h into the assay
Detection: 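Replicate-averaged viability against non-targeting pool control, given as fraction and robust z-score; separate synergy scores for BYL719, cetuximab and trametinib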
Direction: robust z-score, knock-down alone and viability, knock-down alone: higher = more viable cells; synergy score with BYL719: higher = stronger synthetic lethality with BYL719; synergy score with cetuximab: higher = stronger synthetic lethality with cetuximab; synergy score with trametinib: higher = stronger synthetic lethality with trametinib
Hit rule: 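Essential if knock-down without drug gives a robust z-score under -3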
Calls: active = essential (knock-down alone); inactive = no change alone
In all, the deposit lists 794 reagents; below is an unselected part. 11 of all reagents (1.4%) count as active. 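Calls reflect knock-down alone; synergy scores play no part, so knock-downs synergising with a drug can be called no change.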 No viability above 1 is reported: the scale is capped. The record does not give: the amount of reagent, the time to read-out.

Gene	robust z-score, knock-down alone	viability, knock-down alone	synergy score with BYL719	synergy score with cetuximab	synergy score with trametinib	outcome
BRD2	0.989	1	0	0.238	-0.116	inactive
CDADC1	-0.259	0.828	-0.133	-0.0938	-0.0388	inactive
NADK	0.572	0.943	-0.0209	0.0998	0.0871	inactive
LYN	0.989	1	0.197	0	0.0921	inactive
MSR1	0.105	0.878	0.119	0.0661	-0.0302	inactive
MINK1	0.182	0.889	0.192	0.0729	0.125	inactive
IP6K2	-0.00614	0.863	0.0508	-0.132	0.0504	inactive
EIF2AK4	0.989	1	0	0	0.00583	inactive
CKMT1B	0.989	1	0.279	0	-0.087	inactive
BTK	0.0725	0.874	0.234	0.209	-0.16	inactive
PINK1	0.989	1	0.111	0.0345	0.00765	inactive
SCYL1	0.989	1	0	0	-0.221	inactive
MPP3	-1.73	0.625	0.106	-0.277	0.0716	inactive
WEE1	-2.25	0.554	0.0494	-0.00327	0.0457	inactive
ELP1	0.822	0.977	-0.0204	0.086	-0.0358	inactive
IRAK1	-0.533	0.79	-0.15	0.0749	-0.096	inactive
RPS6KA3	0.989	1	0.108	0.000403	0.0267	inactive
ROR2	0.989	1	0.0837	0	0.0309	inactive
FOXP1	0.0369	0.869	0.106	0.0168	-0.0318	inactive
EFNA5	0.989	1	0.0307	0	-0.217	inactive
ERBB3	0.0217	0.867	-0.0873	0.0409	0.0366	inactive
CDK9	0.989	1	0.0337	0	-0.159	inactive
THNSL1	0.739	0.966	-0.0344	-0.0344	0.00707	inactive
PI4K2B	-0.436	0.804	-0.113	0.194	0.0502	inactive
FGR	0.324	0.908	0.187	-0.0875	-0.0753	inactive
CSNK2B	0.51	0.934	0.18	0.018	0.193	inactive
TBX3	0.241	0.897	-0.00774	-0.0401	-0.053	inactive
IPMK	-0.982	0.728	-0.272	-0.272	-0.21	inactive
DGKG	-0.173	0.84	-0.0457	-0.0318	-0.032	inactive
EXOSC10	-0.826	0.75	-0.113	0.0129	-0.0514	inactive
CSNK2A2	-1.1	0.712	-0.0424	-0.288	-0.0736	inactive
CDK11A	-2.24	0.555	-0.129	0.0421	-0.0233	inactive
TRPM6	0.175	0.888	0.0525	0.0304	-0.183	inactive
KSR1	-0.123	0.847	0.065	0.0011	0.122	inactive
PFKP	0.989	1	0.148	0.0625	-0.0658	inactive
DAPK2	0.777	0.971	0.132	0.206	-0.128	inactive
FRK	0.989	1	0.0155	0	-0.0615	inactive
EPHA1	0.9	0.988	-0.0123	-0.0104	0.0587	inactive
CSF1R	-1.64	0.638	-0.108	-0.0984	-0.147	inactive
PGK2	-0.517	0.792	0.133	0.162	-0.168	inactive
DGKH	0.989	1	0.165	0	0.0936	inactive
PRKAB2	0.325	0.909	0.263	-0.0711	-0.0358	inactive
FYN	0.966	0.997	0.113	0.126	-0.0695	inactive
KIT	-0.336	0.818	0.0163	-0.142	-0.205	inactive
STK38	-0.513	0.793	-0.118	0.0785	-0.0805	inactive
ADK	0.644	0.952	0.0225	0.067	0.0397	inactive
PIK3C2B	0.989	1	0.0352	0	0.0373	inactive
TAB1	0.989	1	0.27	0	-0.106	inactive
CASK	-0.565	0.786	0.246	-0.0189	-0.089	inactive
JAK2	-0.0431	0.858	-0.0536	0.159	-0.114	inactive
